{
  "sequences": {"note": "Chains of the proteins cited; added tags and fusions are not shown. Lines headed by an entry give the natural chain unless they say otherwise; changes in a name come on top.", "UniProt Q9UC07": "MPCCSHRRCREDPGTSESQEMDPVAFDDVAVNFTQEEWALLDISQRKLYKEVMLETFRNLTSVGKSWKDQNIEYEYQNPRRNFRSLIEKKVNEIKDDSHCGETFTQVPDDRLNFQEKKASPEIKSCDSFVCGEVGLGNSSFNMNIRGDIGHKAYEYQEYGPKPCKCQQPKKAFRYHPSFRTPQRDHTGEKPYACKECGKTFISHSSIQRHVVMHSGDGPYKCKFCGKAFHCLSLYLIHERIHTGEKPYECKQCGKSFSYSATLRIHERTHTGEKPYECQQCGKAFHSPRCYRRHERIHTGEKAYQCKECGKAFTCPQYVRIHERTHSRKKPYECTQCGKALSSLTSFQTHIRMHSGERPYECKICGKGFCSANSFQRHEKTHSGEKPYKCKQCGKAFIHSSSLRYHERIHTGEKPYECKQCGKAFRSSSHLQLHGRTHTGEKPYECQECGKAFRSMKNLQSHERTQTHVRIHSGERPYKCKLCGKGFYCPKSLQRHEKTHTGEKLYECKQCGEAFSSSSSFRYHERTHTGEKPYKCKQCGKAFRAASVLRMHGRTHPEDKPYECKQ", "UniProt Q9P0W2": "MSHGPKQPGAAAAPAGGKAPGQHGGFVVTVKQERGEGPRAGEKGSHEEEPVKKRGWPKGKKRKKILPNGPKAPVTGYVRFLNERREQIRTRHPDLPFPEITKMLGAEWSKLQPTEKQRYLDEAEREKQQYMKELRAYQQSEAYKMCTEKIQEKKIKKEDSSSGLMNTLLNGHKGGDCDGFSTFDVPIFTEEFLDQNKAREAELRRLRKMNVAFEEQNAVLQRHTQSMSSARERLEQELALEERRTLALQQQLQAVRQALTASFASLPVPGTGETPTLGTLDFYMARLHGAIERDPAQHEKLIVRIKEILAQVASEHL", "UniProt Q9UJA5": "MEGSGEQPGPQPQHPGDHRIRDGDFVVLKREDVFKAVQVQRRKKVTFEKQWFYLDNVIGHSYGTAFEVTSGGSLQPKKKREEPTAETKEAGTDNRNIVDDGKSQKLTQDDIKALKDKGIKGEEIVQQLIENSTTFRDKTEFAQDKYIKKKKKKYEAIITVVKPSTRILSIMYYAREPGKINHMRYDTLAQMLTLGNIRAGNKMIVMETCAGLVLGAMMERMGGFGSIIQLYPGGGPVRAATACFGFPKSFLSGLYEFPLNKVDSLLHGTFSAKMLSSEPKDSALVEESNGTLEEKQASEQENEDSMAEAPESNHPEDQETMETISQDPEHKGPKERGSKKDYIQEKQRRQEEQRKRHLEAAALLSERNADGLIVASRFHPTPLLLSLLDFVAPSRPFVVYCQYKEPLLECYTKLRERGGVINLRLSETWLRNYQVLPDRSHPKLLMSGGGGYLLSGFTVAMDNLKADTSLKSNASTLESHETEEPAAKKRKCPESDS", "UniProt Q9UBL3, whole entry": "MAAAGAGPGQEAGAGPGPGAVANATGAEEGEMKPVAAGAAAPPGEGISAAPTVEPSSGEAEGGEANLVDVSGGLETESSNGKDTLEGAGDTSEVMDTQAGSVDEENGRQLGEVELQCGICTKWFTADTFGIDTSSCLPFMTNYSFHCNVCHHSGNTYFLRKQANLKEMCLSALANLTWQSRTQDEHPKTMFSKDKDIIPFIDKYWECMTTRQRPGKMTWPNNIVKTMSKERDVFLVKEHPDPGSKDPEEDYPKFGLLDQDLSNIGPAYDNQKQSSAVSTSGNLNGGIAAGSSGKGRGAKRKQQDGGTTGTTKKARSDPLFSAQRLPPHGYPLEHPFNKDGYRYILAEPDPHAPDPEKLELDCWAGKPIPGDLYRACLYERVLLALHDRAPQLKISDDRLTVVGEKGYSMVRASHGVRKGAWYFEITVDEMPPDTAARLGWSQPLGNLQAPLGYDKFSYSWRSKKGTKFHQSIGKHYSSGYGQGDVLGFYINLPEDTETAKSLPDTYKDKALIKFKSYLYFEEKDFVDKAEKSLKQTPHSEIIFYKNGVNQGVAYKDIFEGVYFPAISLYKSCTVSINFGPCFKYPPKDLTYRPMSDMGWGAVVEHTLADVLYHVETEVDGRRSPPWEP", "UniProt Q9UBK8": "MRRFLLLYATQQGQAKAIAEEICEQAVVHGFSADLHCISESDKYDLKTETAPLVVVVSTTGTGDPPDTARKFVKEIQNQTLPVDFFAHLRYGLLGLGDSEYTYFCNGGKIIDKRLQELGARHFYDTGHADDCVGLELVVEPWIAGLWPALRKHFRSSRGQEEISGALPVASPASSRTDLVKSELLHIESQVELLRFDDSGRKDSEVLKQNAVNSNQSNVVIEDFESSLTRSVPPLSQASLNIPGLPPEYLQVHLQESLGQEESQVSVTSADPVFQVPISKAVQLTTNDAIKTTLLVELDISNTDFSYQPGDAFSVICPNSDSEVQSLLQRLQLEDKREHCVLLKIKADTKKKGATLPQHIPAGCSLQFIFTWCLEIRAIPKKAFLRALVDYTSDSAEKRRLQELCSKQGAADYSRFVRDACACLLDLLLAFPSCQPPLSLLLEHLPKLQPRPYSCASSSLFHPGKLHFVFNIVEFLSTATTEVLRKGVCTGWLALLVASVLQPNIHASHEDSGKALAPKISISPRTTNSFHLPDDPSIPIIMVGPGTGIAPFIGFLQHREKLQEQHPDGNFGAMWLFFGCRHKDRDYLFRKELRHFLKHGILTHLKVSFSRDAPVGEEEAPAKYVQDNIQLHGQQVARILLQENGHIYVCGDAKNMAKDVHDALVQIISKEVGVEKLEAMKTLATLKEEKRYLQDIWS", "UniProt Q9UDY2": "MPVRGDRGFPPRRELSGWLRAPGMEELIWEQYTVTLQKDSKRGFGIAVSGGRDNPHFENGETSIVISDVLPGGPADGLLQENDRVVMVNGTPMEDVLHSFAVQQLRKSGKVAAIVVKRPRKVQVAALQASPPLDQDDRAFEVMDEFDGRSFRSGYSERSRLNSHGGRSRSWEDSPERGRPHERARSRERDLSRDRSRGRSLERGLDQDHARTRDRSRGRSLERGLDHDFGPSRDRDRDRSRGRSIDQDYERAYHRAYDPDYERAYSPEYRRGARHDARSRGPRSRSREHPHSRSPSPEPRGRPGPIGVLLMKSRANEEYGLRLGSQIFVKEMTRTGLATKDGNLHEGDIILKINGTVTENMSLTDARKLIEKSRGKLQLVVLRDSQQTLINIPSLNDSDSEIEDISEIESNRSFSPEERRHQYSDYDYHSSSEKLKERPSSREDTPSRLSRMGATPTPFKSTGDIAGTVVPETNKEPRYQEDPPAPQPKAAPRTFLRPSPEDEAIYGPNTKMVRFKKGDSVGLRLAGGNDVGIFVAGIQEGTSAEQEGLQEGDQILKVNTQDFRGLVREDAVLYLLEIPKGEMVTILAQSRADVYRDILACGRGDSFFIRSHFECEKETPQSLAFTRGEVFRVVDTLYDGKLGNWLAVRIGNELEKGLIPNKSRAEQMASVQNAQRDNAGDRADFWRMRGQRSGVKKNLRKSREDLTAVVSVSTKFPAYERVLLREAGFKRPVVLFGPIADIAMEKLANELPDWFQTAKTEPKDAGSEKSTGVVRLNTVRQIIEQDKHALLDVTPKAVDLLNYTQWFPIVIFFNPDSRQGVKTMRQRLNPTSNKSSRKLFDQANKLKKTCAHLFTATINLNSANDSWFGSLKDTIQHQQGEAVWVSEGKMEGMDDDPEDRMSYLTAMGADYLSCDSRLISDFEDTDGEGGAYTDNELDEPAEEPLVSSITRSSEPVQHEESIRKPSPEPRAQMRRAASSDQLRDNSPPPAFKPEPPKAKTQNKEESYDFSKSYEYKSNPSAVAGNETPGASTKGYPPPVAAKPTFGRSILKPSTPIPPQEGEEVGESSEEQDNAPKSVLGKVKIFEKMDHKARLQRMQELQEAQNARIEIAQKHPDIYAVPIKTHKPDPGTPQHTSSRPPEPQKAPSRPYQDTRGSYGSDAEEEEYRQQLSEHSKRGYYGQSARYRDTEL", "UniProt Q9UBB5, whole entry": "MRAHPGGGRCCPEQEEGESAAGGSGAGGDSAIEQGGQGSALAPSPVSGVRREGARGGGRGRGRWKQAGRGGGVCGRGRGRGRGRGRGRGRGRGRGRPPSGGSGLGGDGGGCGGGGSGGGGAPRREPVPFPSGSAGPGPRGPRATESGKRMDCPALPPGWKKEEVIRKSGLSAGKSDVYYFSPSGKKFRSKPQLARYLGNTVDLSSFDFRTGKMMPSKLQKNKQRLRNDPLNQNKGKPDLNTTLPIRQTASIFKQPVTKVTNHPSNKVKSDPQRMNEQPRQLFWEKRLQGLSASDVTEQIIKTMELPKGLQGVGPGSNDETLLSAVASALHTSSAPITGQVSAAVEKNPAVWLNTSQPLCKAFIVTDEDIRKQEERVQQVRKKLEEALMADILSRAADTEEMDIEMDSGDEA", "UniProt Q9P0S2": "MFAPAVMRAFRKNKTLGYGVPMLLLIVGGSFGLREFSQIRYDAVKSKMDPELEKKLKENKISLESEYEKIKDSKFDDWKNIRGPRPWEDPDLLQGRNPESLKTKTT", "UniProt Q9UII5": "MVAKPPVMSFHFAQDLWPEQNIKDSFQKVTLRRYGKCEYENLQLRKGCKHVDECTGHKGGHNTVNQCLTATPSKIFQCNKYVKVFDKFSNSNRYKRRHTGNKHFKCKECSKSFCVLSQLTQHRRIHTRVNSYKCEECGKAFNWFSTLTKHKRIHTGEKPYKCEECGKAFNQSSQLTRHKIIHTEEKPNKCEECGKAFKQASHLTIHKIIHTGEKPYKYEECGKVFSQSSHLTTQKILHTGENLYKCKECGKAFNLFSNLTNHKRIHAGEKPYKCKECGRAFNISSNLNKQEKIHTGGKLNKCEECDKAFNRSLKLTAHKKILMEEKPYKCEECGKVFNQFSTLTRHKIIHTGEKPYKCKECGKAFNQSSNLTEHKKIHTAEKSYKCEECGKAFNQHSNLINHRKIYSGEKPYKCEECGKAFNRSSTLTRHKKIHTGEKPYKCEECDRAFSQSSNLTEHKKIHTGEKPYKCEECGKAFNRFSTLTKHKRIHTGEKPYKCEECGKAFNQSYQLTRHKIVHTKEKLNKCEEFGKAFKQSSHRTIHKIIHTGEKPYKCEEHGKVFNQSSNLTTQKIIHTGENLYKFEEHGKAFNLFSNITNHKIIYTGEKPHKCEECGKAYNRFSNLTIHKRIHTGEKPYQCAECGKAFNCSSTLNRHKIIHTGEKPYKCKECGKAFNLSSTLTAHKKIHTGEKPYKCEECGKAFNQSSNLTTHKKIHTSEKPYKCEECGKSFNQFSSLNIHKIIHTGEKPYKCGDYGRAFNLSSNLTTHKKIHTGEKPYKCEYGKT", "UniProt Q9UBI9": "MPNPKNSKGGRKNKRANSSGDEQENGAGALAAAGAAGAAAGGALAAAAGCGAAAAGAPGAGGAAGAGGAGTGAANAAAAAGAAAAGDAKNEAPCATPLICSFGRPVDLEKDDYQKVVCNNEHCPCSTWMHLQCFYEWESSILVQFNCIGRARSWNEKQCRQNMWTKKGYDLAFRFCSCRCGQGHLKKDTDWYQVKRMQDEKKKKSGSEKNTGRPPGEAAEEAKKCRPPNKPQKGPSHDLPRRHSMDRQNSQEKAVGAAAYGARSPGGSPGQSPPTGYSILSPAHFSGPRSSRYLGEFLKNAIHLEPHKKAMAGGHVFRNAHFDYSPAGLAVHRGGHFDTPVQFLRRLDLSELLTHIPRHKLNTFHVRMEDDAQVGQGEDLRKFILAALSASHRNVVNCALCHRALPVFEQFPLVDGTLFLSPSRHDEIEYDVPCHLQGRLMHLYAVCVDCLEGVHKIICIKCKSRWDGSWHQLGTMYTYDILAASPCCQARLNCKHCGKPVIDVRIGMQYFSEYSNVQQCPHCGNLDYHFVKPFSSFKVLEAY", "UniProt Q9UGN5": "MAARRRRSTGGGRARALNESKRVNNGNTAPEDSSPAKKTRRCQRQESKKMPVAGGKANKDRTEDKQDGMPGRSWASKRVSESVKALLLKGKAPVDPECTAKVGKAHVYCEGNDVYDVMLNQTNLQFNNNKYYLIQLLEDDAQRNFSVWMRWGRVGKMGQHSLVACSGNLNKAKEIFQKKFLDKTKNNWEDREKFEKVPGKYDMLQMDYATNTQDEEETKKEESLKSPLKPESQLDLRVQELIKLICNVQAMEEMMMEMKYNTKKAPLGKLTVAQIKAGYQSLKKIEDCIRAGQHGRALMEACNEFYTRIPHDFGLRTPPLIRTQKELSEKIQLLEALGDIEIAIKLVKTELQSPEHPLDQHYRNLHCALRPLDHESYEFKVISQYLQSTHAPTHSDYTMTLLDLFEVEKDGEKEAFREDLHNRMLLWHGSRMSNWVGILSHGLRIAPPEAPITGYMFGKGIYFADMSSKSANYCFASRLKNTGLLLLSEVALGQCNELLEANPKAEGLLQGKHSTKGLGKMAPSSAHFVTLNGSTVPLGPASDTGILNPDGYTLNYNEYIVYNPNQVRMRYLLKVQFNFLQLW", "UniProt Q9P032": "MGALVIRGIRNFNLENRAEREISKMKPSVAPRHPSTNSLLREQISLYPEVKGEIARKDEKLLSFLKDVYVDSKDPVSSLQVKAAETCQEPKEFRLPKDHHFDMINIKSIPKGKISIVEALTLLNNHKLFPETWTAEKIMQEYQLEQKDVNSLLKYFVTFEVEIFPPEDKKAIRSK"},
  "source": "the supplement of paper PMC12819154",
  "about": "“High-throughput peptide-centric local stability assay extends protein–ligand identification to membrane proteins, tissues and bacteria” (Nature Structural & Molecular Biology, 2025)",
  "note": "The list shows a part of the results. Most values lie at the level of the controls, where differences are scatter.",
  "data": [
    {"compound": "CN[C@@H]1C[C@H]2O[C@@](C)([C@@H]1OC)n1c3ccccc3c3c4c(c5c6ccccc6n2c5c31)C(=O)NC4 [staurosporine]", "experiment": "log2 fold change of tryptic peptide abundance, ligand vs vehicle (limited proteolysis) (log2 ratio); higher = more trypsin-susceptible (destabilized)", "conditions": "ligand concentration: 20 uM; sample: K562 cleared lysate; digestion: 4 min, 22 C (HT-PELSA RT4min, Orbitrap Astral)", "values": [
      {"target": "UniProt Q9UC07 (peptide sequence: EVMLETFR, peptide start residue: 31)", "log2 fold change": -0.00354},
      {"target": "MRM2 (peptide sequence: ILEVLPGR, peptide start residue: 139) (UniProt Q9UI43)", "log2 fold change": -0.121},
      {"target": "HMG20B (peptide sequence: LHGAIERDPAQHEK, peptide start residue: 287) (UniProt Q9P0W2)", "log2 fold change": 0.273},
      {"target": "USP36 (peptide sequence: AVEEDGHLK, peptide start residue: 968) (UniProt Q9P275)", "log2 fold change": 0.514},
      {"target": "ANAPC2 (peptide sequence: TFQEMIQR, peptide start residue: 168) (UniProt Q9UJX6)", "log2 fold change": 0.274},
      {"target": "TRMT6 (peptide sequence: NYQVLPDR, peptide start residue: 432) (UniProt Q9UJA5)", "log2 fold change": -0.3},
      {"target": "ASH2L (peptide sequence: EHPDPGSKDPEEDYPK, peptide start residue: 238) (UniProt Q9UBL3)", "log2 fold change": 0.326},
      {"target": "MTRR (peptide sequence: GQEEISGALPVASPASSR, peptide start residue: 159) (UniProt Q9UBK8)", "log2 fold change": -0.248},
      {"target": "TJP2 (peptide sequence: GSYGSDAEEEEYRQQLSEHSKR, peptide start residue: 1155) (UniProt Q9UDY2)", "log2 fold change": 0.855},
      {"target": "RRBP1 (peptide sequence: AQEQQQQMAELHSK, peptide start residue: 908) (UniProt Q9P2E9)", "log2 fold change": -0.454},
      {"target": "NIPSNAP3A (peptide sequence: AVHAHVNLGYTK, peptide start residue: 168) (UniProt Q9UFN0)", "log2 fold change": 0.437},
      {"target": "TUBE1 (peptide sequence: NMPVQDLPR, peptide start residue: 462) (UniProt Q9UJT0)", "log2 fold change": 0.35},
      {"target": "TUBD1 (peptide sequence: QGSGNNWAYGYSVHGPR, peptide start residue: 98) (UniProt Q9UJT1)", "log2 fold change": 0.409},
      {"target": "MBD2 (peptide sequence: QTASIFKQPVTK, peptide start residue: 103) (UniProt Q9UBB5)", "log2 fold change": 0.39},
      {"target": "ITSN2 (peptide sequence: NMQFSNTPDSGVSLLHK, peptide start residue: 567) (UniProt Q9NZM3)", "log2 fold change": 0.512},
      {"target": "EIF3K (peptide sequence: AMFEQMR, peptide start residue: 2) (UniProt Q9UBQ5)", "log2 fold change": 0.065},
      {"target": "COX16 (peptide sequence: GPRPWEDPDLLQGR, peptide start residue: 83) (UniProt Q9P0S2)", "log2 fold change": -0.291},
      {"target": "SRP68 (peptide sequence: AAIEAFNK, peptide start residue: 206) (UniProt Q9UHB9)", "log2 fold change": 0.245},
      {"target": "DBNL (peptide sequence: VKDPNSGLPK, peptide start residue: 69) (UniProt Q9UJU6)", "log2 fold change": 0.238},
      {"target": "STIM2 (peptide sequence: VYNGILEK, peptide start residue: 670) (UniProt Q9P246)", "log2 fold change": -0.0614},
      {"target": "UniProt Q9UII5 (peptide sequence: AFNLSSNLTTHK, peptide start residue: 756)", "log2 fold change": -0.719},
      {"target": "HECA (peptide sequence: NAHFDYSPAGLAVHR, peptide start residue: 319) (UniProt Q9UBI9)", "log2 fold change": -0.0971},
      {"target": "UniProt Q9UIF8 (peptide sequence: LIVPSPDVLK, peptide start residue: 401)", "log2 fold change": 0.311},
      {"target": "ARHGEF12 (peptide sequence: SVQEDWQHFPR, peptide start residue: 1273) (UniProt Q9NZN5)", "log2 fold change": 0.304},
      {"target": "PARP2 (peptide sequence: VNNGNTAPEDSSPAKK, peptide start residue: 23) (UniProt Q9UGN5)", "log2 fold change": 0.548},
      {"target": "UniProt Q9UGL1 (peptide sequence: ALIEESEMK, peptide start residue: 781)", "log2 fold change": -0.279},
      {"target": "TCEAL9 (peptide sequence: HLSNEDMFR, peptide start residue: 64) (UniProt Q9UHQ7)", "log2 fold change": -0.107},
      {"target": "UniProt Q9P032 (peptide sequence: IMQEYQLEQK, peptide start residue: 138)", "log2 fold change": 0.879}
    ]}
  ]
}
